Results are given in words; binding and its absence hold for the method and conditions named. Some entries that bind do so weakly or less than the wild type.
Assays:
[1] = target: Cynomolgus monkey TIGIT-His tag fusion protein (cynomolgus monkey); test: ELISA, TIGIT-His coated; comparator, weaker than H401LV2
[2] = target: Human TIGIT-His tag fusion protein (human) (UniProt Q495A1); test: as above
[3] = target: Human TIGIT-His tag fusion protein (human) (UniProt Q495A1); test: ELISA, human TIGIT-His coated, HRP anti-human IgG, OD450
[4] = target: Cynomolgus monkey TIGIT-His tag fusion protein (cynomolgus monkey); test: ELISA, cynomolgus TIGIT-His coated, HRP anti-human IgG, OD450
[5] = target: Human TIGIT-His tag fusion protein (human) (UniProt Q495A1); test: competition ELISA on coated TIGIT-His; blocked ligand CD155-Biotin; the sheet does not name the species of the TIGIT-His

By UniProt entry, the sequences of proteins in these tests, tags left out. Residues count along the entry.
UniProt Q495A1, residues 22-141: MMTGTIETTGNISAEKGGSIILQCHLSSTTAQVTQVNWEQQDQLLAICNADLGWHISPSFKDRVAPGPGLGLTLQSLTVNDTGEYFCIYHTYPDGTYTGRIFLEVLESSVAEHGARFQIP

Measured: binding

B1: Hu4A501 (antibody, V domains shown)
VH: QVQLQESGPGLVKPSQTLSLTCTVTGSSITSDYAWNWIRQFPGKKLEWMGYITYSGRTTYNPSLKSRITISRDTSKNQFSLKLSSVTAADTATYYCARWGLLRRYFDYWGQGTLLTVSS
VL: DIVMTQSPSSMSTSVGDRVTITCRASQDVFTAVAWYQQKPGKSPKLLIYSASFRYTGVPDRFSGSGSGTDFTFTISSVQAEDFATYYCQQHYSTPLTFGAGTKLELKR
binds: all assays above

From patent US20260103513A1
